Screen size: about 390,000 compounds; about 610 (0.16%) were called active. The inconclusive results got no clear call from the source; some entries with a clear call stand among them for comparison. Calls follow the shape of the dose curve; as a rule, active = well fitted inhibition curve with a large enough effect; inconclusive = small, poorly fitted or top-dose-only effect, or effect the other way, or another doubt; inactive = no such curve, though single readings can be large or run the other way. Where the call is inconclusive, the potency comes from a doubtful curve fit.
Assay: Nrf2 qHTS screen for inhibitors: counterscreen for cytotoxicity
Settings: A549 ARE-Fluc cells, CellTiter-Fluor viability, 18-24 h; series mostly up to 46 µM
Summary of the method: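 A549 ARE_Fluc cells in 5% FBS OPTI-MEM were exposed to compounds in concentration-response for 18-24 h at 37 deg C. Viability was read by CellTiter-Fluor fluorescence (Ex 405/Em 525) after 30 min, before the luciferase read.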
In the case of `COc1ccc(C2=C(N3CCN(c4cccc(C)c4)C(C)C3)c3ccccc3C2=O)cc1` (configuration not stated), the Potency is reported as inconclusive: 18.4 µM [falling, single point].
For `C[C@@H](NC(=O)OC(C)(C)C)c1nnc(S(=O)(=O)Cc2ccccc2)o1`, the Potency was inconclusive: 29.1 µM [falling, single point].
In the case of `CC(C)(C)C(=O)/C=C(N)/C=C/c1ccccc1`, the Potency is reported as inconclusive: 18.4 µM [falling, partial curve, poor fit].
For `CCC(NC(=O)NCc1cccnc1)(C(F)(F)F)C(F)(F)F`, the Potency was “inactive”.
With `N#CCCCSc1nnc(-c2ccccn2)o1` the Potency was inconclusive: 16.4 µM [activator, single point].
In the case of `COc1ccc(CCN2C(=S)N(C)C(=O)C2CC(=O)Nc2ccc(OC)cc2)cc1` (configuration not stated), the Potency is reported as “inactive”.
With `COc1cc(C(=O)N/N=C/c2ccsc2C)cc(OC)c1OC` the Potency was inconclusive: 0.411 µM [falling, full curve].
With `CCOc1ccc(S(=O)(=O)N2CCN(CC(O)COc3cccc([N+](=O)[O-])c3)CC2)cc1` (configuration not stated) the Potency was “inactive”.
For `Cc1cccc2cc(C#N)c(NCCCn3ccnc3)nc12`, the Potency was inconclusive: 18.4 µM [activator, partial curve, poor fit].
In the case of `O=C(CCn1c(=O)c2cccn2c2cccnc21)N1CCN(c2ccccc2F)CC1`, the Potency is reported as “inactive”.
With `COc1cccc2sc3cc(NCc4ccc(C)o4)ccc3c(=O)c12` the Potency was “inactive”.
With `Nc1ccc(-c2nc3ccc(N)cc3[nH]2)cc1` the Potency was “inactive”.
In the case of `O=C(COc1ccccc1C(=O)Nc1ccccc1)c1ccc(Br)cc1`, the Potency is reported as inconclusive: 29.1 µM [falling, single point].
In the case of `CCn1c(/C=C/c2cc[n+](C)cc2)nc2ccccc21`, the Potency is reported as inconclusive: 20.6 µM [activator, partial curve].
With `COc1ccc(CC(=O)NCCc2csc(-c3cccc(C)c3)n2)cc1` the Potency was “inactive”.
In the case of `CCn1c(=N)n(CCOc2ccc(Br)cc2)c2ccccc21`, the Potency is reported as inconclusive: 32.6 µM [falling, partial curve, poor fit].
In the case of `O=C1[C@@H]2Cc3c([nH]c4ccccc34)C(c3ccccc3)N2C(=O)CN1C1CCN(Cc2ccccc2)CC1` (some centres not stated), the Potency is reported as inconclusive: 16.4 µM [falling, partial curve, poor fit].
In the case of `CCN(CC)CCn1c(NS(=O)(=O)c2ccc(Cl)cc2)nc2ccccc21`, the Potency is reported as “inactive”.
For `Cc1cccc(OCC(=O)Nc2ccc(-c3nc4ccccc4o3)cc2)c1C`, the Potency was “inactive”.
With `Cc1oc(-c2ccccc2Cl)nc1Cn1c(SCc2cccc(F)c2)nc2cccnc21` the Potency was “inactive”.
In the case of `CC(=O)NCCN=Cc1sc2ccccc2c1O`, the Potency is reported as inconclusive: 35.5 µM [falling, partial curve, poor fit].
For `O=C1c2ccccc2C(=O)N1CSc1nnc(Nc2ccccc2F)s1`, the Potency was “inactive”.
For `N=c1c(C(=O)NCCN2CCOCC2)cc2c(=O)n3ccccc3nc2n1Cc1ccc(F)cc1`, the Potency was inconclusive: 11.6 µM [falling, partial curve, poor fit].
In the case of `COCCCn1c(=NC(C)=O)c(C#N)cc2c(=O)n3cccc(C)c3nc21`, the Potency is reported as inconclusive: 18.4 µM [activator, single point].
With `CCn1c(CN2CCC(C)CC2)nc2cc(NC(=O)COc3ccc(Cl)c(C)c3)ccc21` the Potency was inconclusive: 18.4 µM [falling, partial curve, poor fit].
In the case of `CC(=O)Nc1cccc(NC(=O)CSc2nc(=O)n(CCCN3CCOCC3)c3c2CCC3)c1`, the Potency is reported as “inactive”.
In the case of `CC(C)C1Oc2ccccc2N(CC(=O)N(C)C2CCCCC2)C1=O` (configuration not stated), the Potency is reported as inconclusive: 13 µM [falling, partial curve].
In the case of `COc1cc(OC)c(NC(=O)CCc2c(C)nc3ncnn3c2C)cc1Cl`, the Potency is reported as “inactive”.
In the case of `Cc1cccc(NC(=O)Cn2cc(C(=O)c3ccco3)c3ccccc32)c1`, the Potency is reported as inconclusive: 29.1 µM [falling, single point].
In the case of `Cc1cc(C)cc(C(=O)Nc2cccnc2)c1`, the Potency is reported as inconclusive: 11.6 µM [falling, partial curve, poor fit].
With `Cc1ccc(C)c(OCC(=O)N/N=C/c2c(C)nn(-c3ccccc3)c2Cl)c1C` the Potency was “inactive”.
For `O=C(Nc1ccc2oc(-c3ccncc3)nc2c1)c1ccccc1Cl`, the Potency was “inactive”.
In the case of `CCCCS(=O)(=O)/C=C\C=C/S(=O)(=O)CCCC`, the Potency is reported as inconclusive: 16.4 µM [falling, single point].
In the case of `COc1ccccc1Nc1cc(C(=O)NC2CCC(C)CC2)c2ccccc2n1` (configuration not stated), the Potency is reported as inconclusive: 18.4 µM [activator, partial curve, poor fit].
For `Cn1c(NCC(O)c2ccccc2)nc2c1c(=O)n(Cc1ccc(Cl)c(Cl)c1)c(=O)n2C` (configuration not stated), the Potency was inconclusive: 18.4 µM [falling, single point].
With `CN1CCN(C(=O)CCN2C(=O)/C(=C\c3ccc(Cl)cc3Cl)SC2=S)CC1` the Potency was active: 7.31 µM.
For `Cc1ccc2c(c1)c(/C=C/c1cc[n+](C)cc1)c(C)n2C`, the Potency was inconclusive: 32.6 µM [falling, partial curve, poor fit].
With `CCCCOc1c(Br)cc(/C=C2\N=C(C)OC2=O)cc1OCC` the Potency was inconclusive: 29.1 µM [falling, single point].
For `C=CCN1C(=O)c2cccc3c(N4CCCCC4)ccc(c23)C1=O`, the Potency was inconclusive: 16.4 µM [activator, partial curve].
In the case of `O=C(/C=C/c1ccco1)NC(=S)Nc1cccc([N+](=O)[O-])c1`, the Potency is reported as inconclusive: 29.1 µM [falling, partial curve, poor fit].
For `COc1ccc(C(C(=O)NC2CCCCC2)N(C(=O)c2sc(C)nc2C)c2ccc(OC)cc2)cc1` (configuration not stated), the Potency was inconclusive: 25.9 µM [falling, partial curve, poor fit].
In the case of `O=C(Cn1c(=O)n(-c2cccc(Cl)c2)c(=O)c2sc3ccccc3c21)NC1CCCCC1`, the Potency is reported as inconclusive: 0.291 µM [falling, partial curve, poor fit].
For `O=C(c1ccccc1)c1ccc2nc(-c3ccco3)c(-c3ccco3)nc2c1`, the Potency was inconclusive: 16.4 µM [falling, partial curve, poor fit].
For `COc1ccc(C(=O)Oc2cccc3cccnc23)cc1[N+](=O)[O-]`, the Potency was “inactive”.
In the case of `O=C(CCCN1C(=O)/C(=C/c2ccccc2Cl)SC1=S)NNC(=O)c1cccnc1`, the Potency is reported as “inactive”.
In the case of `Cc1nnc(SCc2ccc(Cl)cc2)nc1/C=C/N(C)C`, the Potency is reported as inconclusive: 32.6 µM [activator, partial curve, poor fit].
In the case of `C=CC[C@@H](CC(=O)N(CCO)Cc1ccccc1)C(=O)N[C@@H](COC(=O)[C@H](CC=C)CC(=O)OC(C)(C)C)Cc1c[nH]c2ccccc12`, the Potency is reported as inconclusive: 23.1 µM [falling, single point].
For `Cc1cc(C)n(-c2nc3ccccc3nc2Nc2ccc(Cl)c(C(=O)OC(C)C)c2)n1`, the Potency was “inactive”.
With `CCN(CC)Cc1cc(Nc2c3ccccc3nc3c4ccccc4n(C)c23)cc(CN(CC)CC)c1O` the Potency was active: 16.4 µM.
With `Cc1ccc(-c2nc(-c3ccccc3)no2)c(Cl)c1` the Potency was inconclusive: 9.2 µM [activator, partial curve, poor fit].
With `CCCC1C(=O)Nc2ccccc2N1C(=O)c1ccc(C(C)(C)C)cc1` (configuration not stated) the Potency was inconclusive: 29.1 µM [falling, partial curve, poor fit].
With `Clc1ccc2ncc(-c3nnnn3-c3ccccc3)c(-c3ccccc3)c2c1` the Potency was inconclusive: 29.1 µM [falling, partial curve, poor fit].
For `OCCC1CN(Cc2cccc(-n3cccn3)c2)CCN1Cc1ccccc1` (configuration not stated), the Potency was “inactive”.
For `C=CCc1ccccc1OCc1nc2ccccc2n1CC`, the Potency was “inactive”.
In the case of `CCOc1ccccc1NC(=O)C(NCCN(C)C)c1ccccc1` (configuration not stated), the Potency is reported as “inactive”.
For `O=C(Cn1ncc(Cl)c(Cl)c1=O)N1CCN(S(=O)(=O)c2ccc3ccccc3c2)CC1`, the Potency was “inactive”.
In the case of `COc1cc2c(cc1NC(=O)CSc1ccc(Cl)cc1)oc1ccccc12`, the Potency is reported as inconclusive: 32.6 µM [activator, partial curve, poor fit].
In the case of `Cc1sc(NC(=O)c2ccco2)nc1-c1ccc2c(c1)CC(C)N2C(=O)C1CC1` (configuration not stated), the Potency is reported as inconclusive: 10 µM [falling, partial curve].
For `O=C(c1ccc(OCC2CCCO2)cc1)N1CCc2ccccc2C1` (configuration not stated), the Potency was “inactive”.
For `Cc1ccc(NC(=O)CN2C(=O)COc3ccc(S(=O)(=O)NC4CCCC4)cc32)cc1Cl`, the Potency was “inactive”.
For `CCOc1ccc(NC(=O)c2ccccn2)cc1`, the Potency was “inactive”.
For `CCN(CC)CCCNc1ccc(-c2nnc(-c3ccc(OCC(C)C)cc3)o2)cn1`, the Potency was inconclusive: 20.6 µM [falling, single point].
For `Cn1c2ccccc2c2cnn(CC(=O)N3CCN(c4cccc(C(F)(F)F)c4)CC3)c(=O)c21`, the Potency was “inactive”.
For `O=C(c1ccc2c(c1)N(Cc1ccc(F)cc1)C(=O)c1ccccc1S2(=O)=O)N1CCN(Cc2ccccc2)CC1`, the Potency was inconclusive: 32.6 µM [falling, partial curve, poor fit].
In the case of `COc1ccc(CNC(=O)COC(=O)c2ccccn2)cc1`, the Potency is reported as “inactive”.
For `COc1cccc(Cn2c(=O)n(CCc3ccccc3)c(=O)c3c2c2cc(OC)ccc2n3C)c1`, the Potency was “inactive”.
With `O=C(CCC1N=C2c3ccccc3N=C(SCc3cccc(Cl)c3)N2C1=O)N1CCN(c2ccccc2)CC1` (configuration not stated) the Potency was “inactive”.
With `CCOC(=O)/C=C/C(=O)OCC(=O)N1CCN(C(=O)c2ccco2)CC1` the Potency was “inactive”.
In the case of `O=c1ccnc(SCc2ccccc2Cl)[nH]1`, the Potency is reported as inconclusive: 0.58 µM [falling, partial curve, poor fit].
For `O=C(Cc1cccc2ccccc12)Nc1ccc(O)cc1C(=O)O`, the Potency was “inactive”.
With `Cc1ccc(NC(=O)c2cc(S(=O)(=O)N3CCCCC3)cs2)cc1` the Potency was “inactive”.
With `O=C(O)c1ccccc1NS(=O)(=O)c1ccc2ccccc2c1` the Potency was “inactive”.

— PubChem BioAssay AID504648 (National Center for Advancing Translational Sciences (NCATS), 2011)
Potency is read from the fitted curve at half-maximal effect.
